Results on 57 molecules are retold here after PubChem BioAssay AID2685 (National Center for Advancing Translational Sciences (NCATS), 2010).

The list shows a part of the results. Shown are side measurements of this screen, not its main read-out; they come without a call. Most of these compounds were active or inconclusive in the main read-out, so they are no random draw. Words in brackets tell the shape of the fitted curve; partial curves, single points and poor fits give uncertain potencies.

As a reminder, the AC50 is the concentration giving half of the maximal activity seen.

The assay is described as follows: qHTS Assay for Lipid Storage Modulators in Drosophila S3 Cells.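 On cell number change: cells counted by Cell Tracker Red CMTPX staining in the red channel.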 Conditions: BODIPY lipid droplet fluorescence, 18-24 h; for cell number change: measured here: cell count max response, cells fed with added oleic acid. The gist of the method:
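Laser-scanning cytometry quantifies lipid droplet accumulation (500–530 nm total intensity; droplet/cell object ratio) in oleic acid-fed (400 uM added) Drosophila S3 cells treated with a concentration series. 20 uM Triacsin C defined 100% inhibition.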
For orientation: In qHTS, concentration-response curves come from the screen itself.

[1] abbreviates: measured here: lipid fluorescence (Fed channel) AC50, cells fed with added oleic acid.
Where [2] appears, read: measured here: cell number channel AC50, cells fed with added oleic acid.

Regarding `Cc1ccc(C(=O)/C=C/NCc2ccc(F)cc2)cc1`, the cell number change came to 11%. For the same molecule, under setting [1], the AC50 is 0.58 µM [rising, single point].

Take `O=C(NCc1cccc(C(F)(F)F)c1)C1CCCN(c2cnccn2)C1` (stereo unspecified): the cell number change came to 3.58%. Further, under setting [1], the concentration at half-maximal activity (AC50) was 1.84 µM [rising, partial curve, poor fit].

For the molecule `COc1ccccc1NS(=O)(=O)c1cccc(NC(=O)Cc2cccs2)c1`, the cell number change is 12.3%. For the same molecule, the half-maximal activity concentration (AC50) under setting [1] was 14.6 µM [rising, single point].

`Cc1ccc(C)c(CSc2nnc([C@@H](N)C(C)C)o2)c1`: the cell number change was determined as 41.5%. The half-maximal activity concentration (AC50) under setting [2] is 2.06 µM [rising, full curve]. Also, the half-maximal activity concentration (AC50) under setting [1] is 0.651 µM [rising, single point].

Consider `C=CCN(N=Nc1cccc([N+](=O)[O-])c1)c1cccc([N+](=O)[O-])c1`, for which the cell number change was determined as 81.3%. Also, the AC50 under setting [1] was 1.64 µM [rising, partial curve].

As to `CCOc1ccc(CCNC(=O)CSc2nn(-c3ccc(C)c(Cl)c3)c(=S)s2)cc1OCC`, the cell number change is -20.6%. Besides, the AC50 under setting [1] is 8.2 µM [falling, partial curve].

With `O=C(O)[C@]1(S(=O)(=O)c2ccccc2)C[C@@H]2ON=C(c3cccc(Br)c3)[C@@H]2C1`, the cell number change stood at 32.4%. In addition, the AC50 under setting [2] is 32.6 µM [rising, partial curve, poor fit]. The AC50 under setting [1] was 6.51 µM [falling, partial curve].

Consider `O=C(Nc1ccccc1)c1cccc(N2C(=O)CCC2=O)c1`, for which the cell number change is 0.809%. Under setting [1], the AC50 was 6.51 µM [falling, single point].

For `O=C(NC1CCCCC1)N(Cc1ccc(F)cc1)Cc1nc2ccccc2c(=O)[nH]1`, the cell number change was -29.3%. For the same molecule, the AC50 under setting [1] is 0.058 µM [rising, full curve, poor fit].

As for `CCOC(=O)c1c(C)c(-c2ccccc2)n(CC(=O)NCCC(C)C)c1C`, the AC50 under setting [1] was 1.3 µM [rising, partial curve].

Turning to `CCN(CC)S(=O)(=O)c1ccc(/C=C/C(=O)Nc2cccc(F)c2)cc1`, under setting [1], the AC50 is 29.1 µM [rising, single point].

For the molecule `O=C(COc1ccc(Cl)cc1)NNC(=S)NCc1ccccc1`, the cell number change is 2.63%. Also, the concentration at half-maximal activity (AC50) under setting [1] is 5.62 µM [falling, single point].

For `Cc1[nH]n(-c2ccccc2)c(=O)c1/C=C1/C=c2ccccc2=N1`, the cell number change was -35.6%. The AC50 under setting [1] is 29.1 µM [falling, partial curve].

Regarding `N=C(c1ccc([N+](=O)[O-])cc1)N1CCCCCC1`, the cell number change worked out at 31%.

For `Cc1nn(Cc2ccc(Cl)cc2Cl)c(C)c1NC(=O)c1sc2ccccc2c1Cl`, the cell number change was -50%. Also, the AC50 under setting [1] is 20.6 µM [falling, single point].

Turning to `Oc1ccc(-c2cccc(-c3ccc(O)cc3)c2)cc1`, the cell number change is -20.4%. Under setting [1], the concentration at half-maximal activity (AC50) was 29.1 µM [falling, single point].

`O=C(Nc1ccc(C(=O)NCc2ccccc2Cl)cc1)C1=CSCCO1`: the cell number change was 12.5%. Moreover, the AC50 under setting [1] was 16.4 µM [rising, single point].

As for `CC1CCN(C(=O)C2CCN(c3ncnc4c3nc3n4CCCCC3)CC2)CC1`, under setting [1], the AC50 was 2.91 µM [falling, full curve].

For `COC(=O)c1cc(OC)c(OC)cc1NC(=O)c1ccc(C)o1`, under setting [1], the AC50 is 0.259 µM [rising, full curve].

With `CCCCCC(=O)O/N=C(\C)c1ccn(S(=O)(=O)c2ccccc2)c1`, the cell number change is -28.1%. Also, under setting [1], the AC50 was 29.1 µM [falling, single point].

For the molecule `Cc1c(Cl)c([N+](=O)[O-])nn1CC(=O)NCCCN1CCOCC1`, under setting [1], the concentration at half-maximal activity (AC50) is 1.84 µM [falling, partial curve].

For `CCCCN1CCc2c(c3ccccc3n2Cc2ccccc2)C1`, the cell number change is -33.1%. For the same molecule, under setting [2], the AC50 is 29.1 µM [falling, single point]. Further, under setting [1], the half-maximal activity concentration (AC50) was 29.1 µM [falling, single point].

For `CCc1nnc(NC(=O)CN2C(=O)/C(=C/c3ccc(OC)c(OC)c3)SC2=S)s1`, the cell number change amounted to 43.2%. For the same molecule, the concentration at half-maximal activity (AC50) under setting [2] was 29.1 µM [rising, single point]. In addition, the concentration at half-maximal activity (AC50) under setting [1] was 6.51 µM [falling, single point].

As for `Cc1ccc(N(CC(=O)NC2CCCC2)C(=O)Cn2nnc(-c3ccccc3F)n2)cc1`, the cell number change was -21.1%. Further, the AC50 under setting [1] is 5.62 µM [falling, single point].

Take `Cc1nn(C(C)C(=O)NCCN2CCCCCC2)c(=O)c2nn(-c3ccccc3)c(C)c12` (stereo unspecified): the cell number change was 33.6%. Further, under setting [2], the half-maximal activity concentration (AC50) is 18.4 µM [rising, single point].

Take `COc1ccc(OC)c(-c2c[n+](=O)c3c(n2[O-])CCCC3)c1`: the cell number change was 1.43%.

With `C=CCN(CC=C)CC(O)Cn1c2ccccc2c2ccccc21` (stereo unspecified), the cell number change was -93.9%. The AC50 under setting [2] is 18.4 µM [falling, partial curve].

For the molecule `Cc1ccc(C(=O)N/C(=C/c2ccc(Cl)cc2)C(=O)NCC2CCCO2)cc1` (stereo unspecified), the cell number change turned out to be 4.95%. For the same molecule, the AC50 under setting [1] was 29.1 µM [rising, single point].

On to `Nc1nonc1-n1nncc1-c1ccccc1`, for which the cell number change was 14.1%. Moreover, the AC50 under setting [2] is 0.82 µM [rising, full curve, poor fit].

Consider `CC1CN(C(=O)Cc2ccc(-c3ccccc3)cc2)CC(C)O1` (stereo unspecified), for which the cell number change was 38.4%. For the same molecule, under setting [2], the AC50 is 0.731 µM [rising, partial curve]. For the same molecule, the AC50 under setting [1] was 23.1 µM [falling, single point].

As for `COC(=O)c1ccccc1NC(=O)NC1CCC(C)CC1` (stereo unspecified), the cell number change turned out to be 20%. Also, under setting [1], the AC50 was 0.184 µM [rising, full curve, poor fit].

For the molecule `CCOC(=O)CSc1nc(-c2ccccc2)nc2ccc(F)cc12`, the cell number change turned out to be 8.77%.

In the case of `CC(C)Nc1nc(-c2cccnc2)nc(-c2ccccc2)c1C#N`, the cell number change worked out at 15.6%. Also, under setting [1], the concentration at half-maximal activity (AC50) was 4.61 µM [falling, partial curve, poor fit].

`O=[N+]([O-])c1cccc(-c2ccc(/C=N/NC(=S)NCc3ccco3)o2)c1`: the cell number change stood at 11%. Further, the AC50 under setting [2] was 0.58 µM [rising, full curve, poor fit].

Consider `COc1ccc(-c2oc(/N=C/N3CCCC3)c(C#N)c2-c2ccc(OC)cc2)cc1`, for which the cell number change is 88.6%. The concentration at half-maximal activity (AC50) under setting [2] was 20.6 µM [rising, partial curve, poor fit]. Further, the concentration at half-maximal activity (AC50) under setting [1] was 1.46 µM [rising, partial curve].

In the case of `Cc1cc(C)n(-c2cc(C(=O)O)cc(C(=O)O)c2)n1`, the cell number change stood at 23.4%. Further, the concentration at half-maximal activity (AC50) under setting [1] is 29.1 µM [rising, single point].

As to `CCCN1Cc2cccc(C(=O)NC(CC(=O)OCC)c3ccc(C)cc3)c2C1=O` (stereo unspecified), the cell number change was -41.7%. In addition, the AC50 under setting [2] is 0.517 µM [falling, partial curve, poor fit]. Besides, the AC50 under setting [1] was 0.731 µM [falling, full curve].

On to `CCCCNC(=O)Cn1cnc2sc(C)c(S(=O)(=O)N3CCN(c4ccccc4OC)CC3)c2c1=O`, for which the cell number change was 17.4%.

For `COc1cccc(/C=N/NC(=O)C(=O)NCc2cccnc2)c1OC`, the cell number change amounted to 10.1%. For the same molecule, the AC50 under setting [1] was 0.103 µM [falling, full curve, poor fit].

Take `O=C(/C=C/c1cccc([N+](=O)[O-])c1)N1CCN(Cc2ccccc2)CC1`: the cell number change turned out to be 9.45%. For the same molecule, under setting [1], the AC50 is 29.1 µM [falling, single point].

For `COc1ccc(OC)c(S(=O)(=O)N2CCC(C(=O)NC(C)c3ccccc3)CC2)c1` (stereo unspecified), the cell number change was -3.47%. Moreover, under setting [1], the half-maximal activity concentration (AC50) was 2.06 µM [rising, single point].

Consider `CN(C(=O)CN1C(=O)C2C3CC(C(Br)C3Br)C2C1=O)C1CCCCC1` (stereo unspecified), for which the cell number change was 1.32%. Also, the AC50 under setting [1] was 5.62 µM [falling, single point].

Regarding `COc1ccc(NC(=O)c2ccc(COCC(F)(F)C(F)F)cc2)cc1OC`, the cell number change was -7.65%. The half-maximal activity concentration (AC50) under setting [1] is 18.4 µM [falling, single point].

In the case of `C=CCOn1c(=O)c(-c2ccccc2)[n+]([O-])c2ccccc21`, the cell number change was 24.9%. Also, the concentration at half-maximal activity (AC50) under setting [1] is 1.3 µM [rising, full curve, poor fit].

Turning to `CC(C)(C)CC(C)(C)NC(=S)Nc1ccc(S(=O)(=O)N2CCOCC2)cc1`, the cell number change was determined as 8.19%.

Turning to `Cn1c(C(=O)OC(C(=O)NC2CCCCC2)c2ccncc2)cc2sccc21` (stereo unspecified), the cell number change was found to be 30%. Under setting [2], the AC50 was 2.59 µM [rising, full curve, poor fit].

As to `O=C(COC(=O)c1ccccc1Br)Nc1ccc2[nH]c(=O)[nH]c2c1`, the cell number change was determined as 49.5%. The AC50 under setting [2] was 20.6 µM [rising, single point].

For `COc1ccc(N2CCN(C(=O)C3CCN(C(=O)c4ccc([N+](=O)[O-])cc4)CC3)CC2)cc1`, the cell number change is -26.2%. Further, the half-maximal activity concentration (AC50) under setting [1] was 2.91 µM [falling, single point].

On to `COCCNC(=O)COc1cc(=O)n(C)c2ccccc12`, for which the cell number change came to 18.4%. In addition, the concentration at half-maximal activity (AC50) under setting [1] was 8.2 µM [rising, partial curve, poor fit].

Turning to `O=C(N/N=C/c1cc(Br)c(O)c(Br)c1O)c1cccnc1`, the cell number change was -2.78%. Also, the half-maximal activity concentration (AC50) under setting [1] is 3.26 µM [rising, partial curve, poor fit].

Regarding `CCc1ccccc1NC(=O)CNC(=O)CNC(=O)Cc1ccccc1`, the cell number change came out at 151%. Also, the AC50 under setting [2] is 3.66 µM [falling, single point]. For the same molecule, the AC50 under setting [1] was 3.66 µM [falling, single point].

`Cc1cc(C(=O)NNC(=O)CCCCC(=O)NNC(=O)c2cc(C)[nH]n2)n[nH]1`: the cell number change worked out at 55.2%. Moreover, the AC50 under setting [2] was 9.2 µM [rising, partial curve]. Besides, the AC50 under setting [1] is 18.4 µM [rising, single point].

For `O=S(=O)(c1ccc(Cl)cc1)c1nc(-c2ccccc2F)oc1NCCCN1CCOCC1`, the cell number change came out at 37.4%. Moreover, under setting [2], the AC50 was 2.31 µM [rising, full curve, poor fit]. Besides, under setting [1], the AC50 was 4.11 µM [rising, full curve].

For `CC1=CCC(COC(=O)Nc2ccccc2)CC1` (stereo unspecified), the cell number change was -32.6%. Further, the AC50 under setting [2] was 18.4 µM [falling, single point]. Also, under setting [1], the AC50 was 20.6 µM [falling, single point].

In the case of `COCCn1cnnc1SCC(=O)Nc1cccc(S(=O)(=O)N2CCCCC2)c1`, the cell number change is 36%. The AC50 under setting [2] was 32.6 µM [rising, single point]. Also, the AC50 under setting [1] was 29.1 µM [rising, partial curve, poor fit].

On to `CCCCN(C(=O)CSc1nnc(-c2ccc(Cl)cc2)o1)c1c(N)n(CC(C)C)c(=O)[nH]c1=O`, for which the cell number change was -29.5%. Besides, under setting [1], the half-maximal activity concentration (AC50) is 6.51 µM [falling, single point].

`COc1cc(C(=O)Nc2sc(C(=O)N3CCOCC3)c(C)c2C#N)cc(OC)c1OC`: the cell number change was -3.41%. Moreover, the AC50 under setting [1] was 6.51 µM [rising, single point].
